PubChem BioAssay AID652272 – Drosophila RNAi Screening Center – 2013
Assay: 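Genome-wide knock-down search for components of Hedgehog signalling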 (primary screen). Cells: Drosophila clone 8 (Cl8) cells. Reagent: long dsRNA against Drosophila genes. Measurement: 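Plate reader light from a firefly reporter under a ptc promoter fragment that responds to Hedgehog, with Renilla light as transfection reference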. Direction: firefly Hh reporter signal: higher = more ptc reporter light; Renilla reference signal: higher = more Renilla control light. Hit rule: 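Called a hit if the two-replicate mean z-score lies below -2 or above +3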. Calls: active = hit: reporter lowered or raised; inactive = not a hit.
The screen tested about 21,000 reagents; shown is a random part of those that have a named target and a result. Of all reagents, 503 (2.4%) were called active. 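Raw plate light values, not normalised; calls rest on replicate z-scores that were not deposited; hits include reporter decreases as well as increases.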 Names joined by + are all predicted targets of the reagent. The record does not give: the amount of reagent, the time to read-out.

gene knocked down | dsRNA | firefly Hh reporter signal, replicate 1 | firefly Hh reporter signal, replicate 2 | firefly Hh reporter signal, replicate 3 | Renilla reference signal, replicate 1 | Renilla reference signal, replicate 2 | activity call
CG10845 | DRSC14272 | 5.02e5 | 1.31e5 | – | 24234 | 3772 | inactive
Cpr47Eg (Cuticular protein 47Eg) | DRSC07330 | 74432 | 45498 | – | 2151 | 3493 | inactive
Xport-A + Xport-B | DRSC15586 | 92204 | 83683 | – | 4170 | 3472 | inactive
CG5062 | DRSC18385 | 55040 | 1.25e5 | – | 2184 | 6165 | inactive
CG17169 | DRSC20905 | 57461 | 1.96e5 | – | 1784 | 11373 | inactive
CG5246 | DRSC15751 | 78166 | 87757 | – | 2225 | 5580 | inactive
Sec24CD (Secretory 24CD) | DRSC00300 | 1.33e5 | 78922 | – | 4693 | 3165 | inactive
CG9106 | DRSC20154 | 1.29e5 | 96885 | – | 2806 | 2568 | inactive
CG32112 | DRSC09815 | 56897 | 65265 | 88250 | 7313 | 6780 | inactive
AQP (aquaporin) | DRSC06122 | 90215 | 49052 | – | 2307 | 4053 | inactive
CG15450 | DRSC20522 | 1.18e5 | 56602 | 5.08e5 | 7927 | 1782 | inactive
CG14960 | DRSC08419 | 70770 | 61896 | – | 2875 | 3794 | inactive
Vps26 (Vacuolar protein sorting 26) | DRSC18555 | 86061 | 63771 | – | 2454 | 2297 | inactive
ics (icarus) | DRSC01878 | 75144 | 95864 | – | 3568 | 3882 | inactive
CG11369 | DRSC17779 | 1.09e5 | 2.75e5 | – | 3356 | 9568 | inactive
CkIalpha (Casein kinase Ialpha) | DRSC20231 | 71836 | 1.53e5 | – | 3725 | 7752 | inactive
Mul1 (Mitochondrial E3 ubiquitin protein ligase 1) | DRSC08174 | 82948 | 45376 | – | 2613 | 3995 | inactive
CG8539 | DRSC10988 | 2.19e5 | 1.69e5 | – | 8585 | 6256 | inactive
CG9986 | DRSC16586 | 1.02e5 | 86261 | – | 2083 | 2411 | inactive
Gr58b (Gustatory receptor 58b) | DRSC04140 | 1.02e5 | 43115 | – | 2499 | 4484 | inactive
NPFR (Neuropeptide F receptor) | DRSC12173 | 82827 | 1.24e5 | – | 4038 | 3104 | inactive
Cth (Cystathionine gamma-lyase) | DRSC07422 | 2.05e5 | 97476 | – | 7298 | 4022 | inactive
CG4752 | DRSC04486 | 1.13e5 | 85504 | – | 1222 | 7763 | inactive
